# The list shows a part of the results.
# Protein sequences, listed by entry. Tags and fused reporters are not part of them.
# UniProt Q0JBA9, entry or part of it: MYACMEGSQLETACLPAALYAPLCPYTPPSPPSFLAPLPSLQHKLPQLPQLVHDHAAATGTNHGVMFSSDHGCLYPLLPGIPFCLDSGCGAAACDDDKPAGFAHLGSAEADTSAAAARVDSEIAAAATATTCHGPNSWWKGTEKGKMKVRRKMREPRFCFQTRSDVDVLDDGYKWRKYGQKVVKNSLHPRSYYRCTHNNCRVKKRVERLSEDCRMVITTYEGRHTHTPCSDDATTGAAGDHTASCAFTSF
# Target: OsWRKY34 (Oryza sativa, UniProt Q0JBA9 1-250)
# Assay: protein-binding microarray (RPBM); PBS, 2% BSA, 51.3 ng/ul salmon testes DNA, 50 uM zinc acetate, 200 nM TF, 25 C, 1 h; high values mean tight binding
# Settings: protein: recombinant; tags: N-terminal polyhistidine and DsRed monomer fusion (pET32a); label: CyDye5-dUTP incorporated in the synthesized complementary strand; 3' TTTTT single-stranded linker to array surface; dsDNA, one strand shown
# Summary of the method: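 Binding signal is reported as fluorescence intensity per feature (arbitrary units) from an Axon 4000B scanner. Incubation used 200 nM of each Ni–NTA-purified, N-terminally polyhistidine- and DsRed-fused transcription factor from E. coli BL21-CodonPlus on a double-stranded custom Agilent array for 1 h at 25 °C, with 50 µM zinc acetate in the buffer, followed by washing.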
row,Sequence,binding signal
1,ACTTGGTAGTGCTAACTCTTAAATTTAACTTTAGAAATTGCGGAGTCACCTAGTGCAG,8220 fluorescence intensity (a.u.)
2,AAGTTTTCTTTAACCACTGGTTCCCGTTCCATTTCTTGCACGGAGTCACCTAGTGCAG,8800 fluorescence intensity (a.u.)
3,ACCCAAGCCTCCGCCGCCGTTCCCATCTCCTCGTCCTCCGCGGAGTCACCTAGTGCAG,10600 fluorescence intensity (a.u.)
4,CAGTGCTTCATGGGTTCATGCATCTACAGTGTGCTTCTGACGGAGTCACCTAGTGCAG,9130 fluorescence intensity (a.u.)
5,TGCCCTTAAAAATAATCTCATATTTTTCTTTCAGTTCTATCGGAGTCACCTAGTGCAG,8250 fluorescence intensity (a.u.)
6,GATGTGCCAATGGTTTCTTTCTCTTTCTTTCTCTTTAAAACGGAGTCACCTAGTGCAG,8910 fluorescence intensity (a.u.)
7,GAACATTCAGAAATTTCTGTGCAATATTATCTCATGACCTCGGAGTCACCTAGTGCAG,9350 fluorescence intensity (a.u.)
8,ACCATTATTTCTTTTTGTACAACCCAAATTGCACCACTGACGGAGTCACCTAGTGCAG,10400 fluorescence intensity (a.u.)
9,GATTGTGTCGCCCACCGCCTCGTCGACATCTGCACGTCTCCGGAGTCACCTAGTGCAG,9130 fluorescence intensity (a.u.)
10,GCTACATTTTGAGACGGGGTGGTATAAATTTTAACCTTTGCGGAGTCACCTAGTGCAG,8170 fluorescence intensity (a.u.)
11,TGTTTTTTTTTTTCTACTACATAGCTGCATTCACCGTATCCGGAGTCACCTAGTGCAG,9620 fluorescence intensity (a.u.)
12,ACGTATCGCGCATTCGCACGCAACGTGCCATTTTTGCACACGGAGTCACCTAGTGCAG,8220 fluorescence intensity (a.u.)
13,TCCCTACTTTTCTCGAGTTTTTTTTTTTTGGTTGCGACTGCGGAGTCACCTAGTGCAG,9490 fluorescence intensity (a.u.)
14,CGTCCTGCAGCCGCATCCGCCCACCCCGTGCACCCGGTCTCGGAGTCACCTAGTGCAG,8730 fluorescence intensity (a.u.)
15,CCTTCCCCTATCATGCATGTCCTCTTCTGTTCCGACTCCCCGGAGTCACCTAGTGCAG,12600 fluorescence intensity (a.u.)
16,TTAAATAAGACAAATGGTCAAACATGTGCTAAAAAGTCAACGGAGTCACCTAGTGCAG,10600 fluorescence intensity (a.u.)
17,CCATGTTCCCTTTTTTTTTACCTTCAGTTTCAAAATGTTACGGAGTCACCTAGTGCAG,8340 fluorescence intensity (a.u.)
18,AAGGCGCACAAGATCTTAATTCACTCACGGATTTCTCAAACGGAGTCACCTAGTGCAG,8400 fluorescence intensity (a.u.)
19,GCACCTCGCAATATCCATGGTCCCCGCTGCCCGTGGACTCCGGAGTCACCTAGTGCAG,10300 fluorescence intensity (a.u.)
20,CTAAATATTTGACGCCGTTGACTTTTTAAAACATGTTTGACGGAGTCACCTAGTGCAG,30500 fluorescence intensity (a.u.)
21,GTATGGTTGGTTGGTTGGTTTGTTGGGTTTCTCCCCGGCCCGGAGTCACCTAGTGCAG,33300 fluorescence intensity (a.u.)

row,Sequence,binding signal
1,TCATTCAATATTTACTCGATCGTCATCCATCTCTAAACACCGGAGTCACCTAGTGCAG,8860 fluorescence intensity (a.u.)
2,AAGATATACTTATGATACCATATCCCAATTTTATTTTTTTCGGAGTCACCTAGTGCAG,9190 fluorescence intensity (a.u.)
3,CTGATTGATCCCCTTTGCAGAGTTACGTCCTTGTTAAGCACGGAGTCACCTAGTGCAG,9060 fluorescence intensity (a.u.)
4,GTCGCTCTCTGCTCCTCCTCGTCCCTCGCGCCGTCACCACCGGAGTCACCTAGTGCAG,12500 fluorescence intensity (a.u.)
5,AGGAGGGTGTGGGTGCGGGGAAATCGTGTGCTGCTGAGCTCGGAGTCACCTAGTGCAG,10800 fluorescence intensity (a.u.)
6,CCTACACACATACAATTCTCCTTAATTAATTCGATCGACACGGAGTCACCTAGTGCAG,9210 fluorescence intensity (a.u.)
7,CTGCAGCTTTATGTCAGTTTCCCTACTTTGTGTGTGTTTTCGGAGTCACCTAGTGCAG,10600 fluorescence intensity (a.u.)
8,ACTAATTAACCAGTGGAACTGTTGCTGTTGCTGTCATGCACGGAGTCACCTAGTGCAG,8120 fluorescence intensity (a.u.)
9,TTTTTTTTGCGCATGATGTAGCATCTCCAAACAGAAATGCCGGAGTCACCTAGTGCAG,8880 fluorescence intensity (a.u.)
10,TGCAGGCCCAACCCTTTTTCTCCTCCATCGCCGAGAAGTCCGGAGTCACCTAGTGCAG,8420 fluorescence intensity (a.u.)
11,CACATGTCGCCTCCTCGCTGTCTCCGCCCAGTCCGCCAGCCGGAGTCACCTAGTGCAG,8480 fluorescence intensity (a.u.)
12,ACCCCATATGTCAACCACATGACATATTTTTTTCTCCTCTCGGAGTCACCTAGTGCAG,8170 fluorescence intensity (a.u.)
13,CCAGTTCCAATTTTCCATGGCGACCTTGGCGCGCGTCTCCCGGAGTCACCTAGTGCAG,10900 fluorescence intensity (a.u.)
14,AATATCTCATACTCCTACCTTCTTTTGGAATTTCCTCTGACGGAGTCACCTAGTGCAG,9710 fluorescence intensity (a.u.)
15,CTGTGACCGCCACCGTCGTGGCACCGCGCTCCTTCTCTCCCGGAGTCACCTAGTGCAG,8640 fluorescence intensity (a.u.)
16,GCCCCATCCATCTAATGCAAGTGCTGGTTGCTTGTGTCGACGGAGTCACCTAGTGCAG,8580 fluorescence intensity (a.u.)
17,CCCACCGTTTCCAAATGTTTGACGCCGTTGACTTTTTATCCGGAGTCACCTAGTGCAG,31900 fluorescence intensity (a.u.)
18,GCACCTACTAGCTTATTATTCTTGTGCCTAGTATTAATTACGGAGTCACCTAGTGCAG,9590 fluorescence intensity (a.u.)
19,AATCTGTGGGCAGGGGCGGCGACGTCGGCGGGCGAGGGCTCGGAGTCACCTAGTGCAG,8660 fluorescence intensity (a.u.)
20,AATACTCCTCATATGCTTAGTTGTTTAGTAGTGTTAATTACGGAGTCACCTAGTGCAG,12000 fluorescence intensity (a.u.)
21,ACTGTGCAATTAATTTTTTTTCGTCCACATTTAATGTTCCCGGAGTCACCTAGTGCAG,8630 fluorescence intensity (a.u.)

# Single entries from above:
# AATACTCCTCATATGCTTAGTTGTTTAGTAGTGTTAATTACGGAGTCACCTAGTGCAG – binding signal: 12000 fluorescence intensity (a.u.)
# CACATGTCGCCTCCTCGCTGTCTCCGCCCAGTCCGCCAGCCGGAGTCACCTAGTGCAG – binding signal: 8480 fluorescence intensity (a.u.)

# Source: paper PMC7819943, “Rice protein-binding microarrays: a tool to detect cis-acting elements near promoter regions in rice”
